Measurements reported in patent publication EP1184030A1, “Antibacterial composition comprising trimethylnorbornanylcyclohexanol derivatives” (Givaudan SA, priority 2000, dated 2002).

Assay: Odor value (vapour pressure divided by olfactive threshold)
Settings: vapour pressure (ng/L) divided by olfactive threshold value (ng/L)

## C=CCc1ccc(O)c(OC)c1 [Eugenol]
  odor value: 346904
